Test results from article PMC4821554.
No constants are given. Whether binding was seen depends on the method and setting. In cells and extracts the contact can be indirect. Some entries that bind do so weakly or less than the wild type.

Protein sequences, listed by entry. Tags and fused reporters are not part of them.
UniProt P35222: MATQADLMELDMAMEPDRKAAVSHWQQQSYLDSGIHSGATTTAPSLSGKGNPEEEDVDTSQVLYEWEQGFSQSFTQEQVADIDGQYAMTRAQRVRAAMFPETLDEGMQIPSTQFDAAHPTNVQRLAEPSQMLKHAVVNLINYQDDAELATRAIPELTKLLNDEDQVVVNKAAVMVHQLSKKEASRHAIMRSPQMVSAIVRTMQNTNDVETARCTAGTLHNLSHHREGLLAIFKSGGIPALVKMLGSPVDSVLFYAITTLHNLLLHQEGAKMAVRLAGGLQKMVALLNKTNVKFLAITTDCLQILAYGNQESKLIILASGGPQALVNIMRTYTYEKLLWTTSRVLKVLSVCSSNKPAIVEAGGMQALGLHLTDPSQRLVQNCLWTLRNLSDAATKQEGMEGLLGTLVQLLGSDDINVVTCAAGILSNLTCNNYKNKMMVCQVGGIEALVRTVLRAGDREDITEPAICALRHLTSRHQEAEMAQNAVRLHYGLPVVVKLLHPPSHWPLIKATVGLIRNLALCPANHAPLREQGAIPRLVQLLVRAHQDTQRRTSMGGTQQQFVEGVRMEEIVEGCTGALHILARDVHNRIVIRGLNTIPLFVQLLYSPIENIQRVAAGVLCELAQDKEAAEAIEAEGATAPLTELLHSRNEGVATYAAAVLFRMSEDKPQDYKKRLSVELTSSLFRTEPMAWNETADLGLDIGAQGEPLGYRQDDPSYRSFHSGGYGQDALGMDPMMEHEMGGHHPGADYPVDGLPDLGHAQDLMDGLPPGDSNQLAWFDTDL
UniProt P43354: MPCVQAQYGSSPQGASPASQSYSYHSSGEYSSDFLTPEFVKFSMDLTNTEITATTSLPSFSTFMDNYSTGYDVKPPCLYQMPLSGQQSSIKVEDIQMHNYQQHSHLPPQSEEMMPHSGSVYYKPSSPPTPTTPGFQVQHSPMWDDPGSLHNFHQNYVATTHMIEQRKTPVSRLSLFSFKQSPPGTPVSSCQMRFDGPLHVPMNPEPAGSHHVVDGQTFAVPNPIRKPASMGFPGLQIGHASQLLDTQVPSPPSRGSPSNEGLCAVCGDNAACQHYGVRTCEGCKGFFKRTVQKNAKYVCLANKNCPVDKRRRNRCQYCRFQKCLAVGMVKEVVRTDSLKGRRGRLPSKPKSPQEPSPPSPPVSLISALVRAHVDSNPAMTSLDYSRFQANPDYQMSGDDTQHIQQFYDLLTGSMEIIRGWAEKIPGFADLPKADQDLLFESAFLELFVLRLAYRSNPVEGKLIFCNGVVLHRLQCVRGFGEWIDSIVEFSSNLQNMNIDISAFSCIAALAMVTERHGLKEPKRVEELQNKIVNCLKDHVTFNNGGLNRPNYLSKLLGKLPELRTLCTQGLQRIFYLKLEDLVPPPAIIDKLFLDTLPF

Key:
[1] = molecular target: β-catenin (full-length human), expressed from pShuttle-IRES-hrGFP-2 (human) (UniProt P35222); assay: co-IP; lysates of transfected HEK-293T cells 72 h after transfection; IP buffer 50 mmol/L Tris-HCl pH 8.0, 150 mmol/L NaCl, 1% NP-40; 500 μg lysate; anti-β-catenin or anti-Nurr1 antibody, protein-A-Sepharose; normal rabbit IgG as control; Western blot
[2] = molecular target: β-catenin (full-length human), expressed from pShuttle-IRES-hrGFP-2 (human) (UniProt P35222); assay: co-IP; lysates of transfected PC12 cells 72 h after transfection; IP buffer 50 mmol/L Tris-HCl pH 8.0, 150 mmol/L NaCl, 1% NP-40; 500 μg lysate; anti-β-catenin or anti-Nurr1 antibody, protein-A-Sepharose; normal rabbit IgG as control; Western blot

In the case of “Nurr1 (full-length human), expressed from pShuttle-IRES-hrGFP-2 (from UniProt P43354 1-598)”, the binding [1] is reported as “binds” and the binding [2] is reported as “binds”.
